{"source": "PubChem BioAssay AID624405", "about": "(Broad Institute, 2012)", "note": "In all, about 1,900 compounds went through this assay and about 250 (13%) were called active. About 4% were inconclusive and are not listed.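 The calls were made as follows: active = fitted curve reaches 40% rescue activity at or below the top valid dose, in every test run; inconclusive = test runs disagree, some active and some inactive; inactive = every run misses the threshold or moves the wrong way.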 Only a part is listed here, and it is no random draw. Entries with a potency or affinity are not part of this list.", "data": [{"experiment": "suppressors of statin myotoxicity in myotubes, dose response, cell-based, C2C12 myotubes, ATP luminescence, cherry pick (AID 624405);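 also: myotubes are challenged with simvastatin at 10 µM to lower ATP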", "conditions": "C2C12 myotubes + simvastatin, 48 h, scaled: DMSO wells 0, geranylgeraniol wells 100; at 19.5 µM (top of the series) unless noted", "values": [{"smiles": "C[C@@H]1CN([C@H](C)CO)C(=O)Cc2cc(NC(=O)Cc3cn(C)c4ccccc34)ccc2O[C@@H]1CN(C)S(=O)(=O)c1ccc(F)cc1", "rescue activity (ATP increase)": "inactive: 12.3%"}, {"smiles": "C[C@@H]1CN([C@H](C)CO)C(=O)Cc2cc(NC(=O)Cc3cn(C)c4ccccc34)ccc2O[C@@H]1CN(C)Cc1ccc(Cl)c(Cl)c1", "rescue activity (ATP increase)": "inactive: 28.1%"}, {"smiles": "CCOC(=O)c1[nH]c2ccccc2c1NC(=O)Nc1ccc(OC)cc1", "rescue activity (ATP increase)": "inactive: 30.7%"}, {"smiles": "C[C@@H]1CN([C@@H](C)CO)C(=O)c2cc(NS(=O)(=O)c3cccs3)ccc2O[C@@H](C)CCCCO[C@@H]1CN(C)Cc1ccc(C(F)(F)F)cc1", "rescue activity (ATP increase)": "inactive: -11.2%"}, {"smiles": "C[C@H](CO)N1C[C@H](C)[C@@H](CN(C)C(=O)CCCN(C)C)OCCCC[C@H](C)Oc2ccc(NC(=O)Nc3ccc(C(F)(F)F)cc3)cc2C1=O", "rescue activity (ATP increase)": "inactive: -8.45%"}, {"smiles": "CCCCSc1nc(C)cc(SCC(=O)N/N=C/c2cccc(OC)c2O)n1", "rescue activity (ATP increase)": "inactive: 17.1%"}, {"smiles": "Cc1ccc(NC(=O)CSCC(=O)Nc2ccc(N3CCOCC3)c(Cl)c2)cc1", "rescue activity (ATP increase)": "inactive: -21.7%"}, {"smiles": "CC(C)C#Cc1ccc2c(c1)O[C@@H](CN(C)C(=O)CC1CC1)[C@@H](C)CN([C@@H](C)CO)S2(=O)=O", "rescue activity (ATP increase)": "inactive: 1.35%"}, {"smiles": "C[C@@H]1CCCCO[C@H](CN(C)C(=O)Cc2ccccc2)[C@@H](C)CN([C@@H](C)CO)C(=O)c2cc(NS(=O)(=O)c3cn(C)cn3)ccc2O1", "rescue activity (ATP increase)": "inactive: -34.5% [at 10 µM]"}, {"smiles": "O=C(c1cc2cc(Cl)cc(Cl)c2oc1=O)N1CCOCC1", "rescue activity (ATP increase)": "inactive: -3.36%"}, {"smiles": "COCCN=C1Sc2nc3c(C)cccc3cc2CN1Cc1ccco1", "rescue activity (ATP increase)": "inactive: -32.1%"}, {"smiles": "CCOC(=O)c1[nH]c2ccc(OC)cc2c1NC(=O)CCN1CCCC(C)C1", "note": "(configuration not stated)", "rescue activity (ATP increase)": "inactive: -16.5%"}, {"smiles": "C[C@@H]1CN([C@H](C)CO)C(=O)c2cc(NC(=O)Cc3cn(C)c4ccccc34)ccc2O[C@@H]1CN(C)S(=O)(=O)c1cccs1", "rescue activity (ATP increase)": "inactive: 12%"}, {"smiles": "C[C@H](CO)N1C[C@H](C)[C@H](CN(C)S(=O)(=O)c2ccc(Cl)cc2)Oc2c(NC(=O)C3CCCCC3)cccc2C1=O", "rescue activity (ATP increase)": "inactive: 11.8%"}, {"smiles": "COc1ccc(NC(=O)Nc2ccc3c(c2)C(=O)N([C@H](C)CO)C[C@H](C)[C@@H](CN(C)Cc2ccc(C(F)(F)F)cc2)OCCCC[C@@H](C)O3)cc1", "rescue activity (ATP increase)": "inactive: -5.5%"}, {"smiles": "CC(C)(C)OC(=O)NCCCCCNC(=O)c1[nH]cnc1C(=O)N[C@@H](Cc1ccccc1)C(=O)OCc1ccccc1", "rescue activity (ATP increase)": "inactive: -35.6%"}, {"smiles": "C[C@@H]1CCCCO[C@@H](CN(C)CC2CCCCC2)[C@@H](C)CN([C@H](C)CO)C(=O)c2cc(NC(=O)NC3CCCCC3)ccc2O1", "rescue activity (ATP increase)": "inactive: -16.5%"}, {"smiles": "CC(=O)O[C@@H]1[C@H]2[C@@H](C[C@@H](C)[C@@H]3C=CC(=O)[C@@]13C)OC(=O)[C@@H]2C", "rescue activity (ATP increase)": "inactive: -25.6%"}, {"smiles": "O=C(c1cccc(-c2nnc(-c3ccccc3)o2)c1)N1CCCCC1", "rescue activity (ATP increase)": "inactive: 21.3%"}, {"smiles": "O=C1c2ccccc2NC2(CCCCC2)N1c1ccc(O)cc1", "rescue activity (ATP increase)": "inactive: 24.1%"}, {"smiles": "C=CCn1cc(-c2ccccc2)cc(C#N)c1=O", "rescue activity (ATP increase)": "inactive: 3.41%"}, {"smiles": "Cn1c(=O)c2c(nc(Oc3ccccc3)n2C)n(C)c1=O", "rescue activity (ATP increase)": "inactive: 5.18%"}, {"smiles": "C[C@@H]1CN([C@H](C)CO)C(=O)c2cccc(NC(=O)Nc3cccc4ccccc34)c2O[C@@H]1CN(C)C(=O)Nc1ccc(F)cc1", "rescue activity (ATP increase)": "inactive: -1.34%"}, {"smiles": "Cc1ccc(-c2nnc(OCCN3CCOCC3)c3ccccc23)cc1", "rescue activity (ATP increase)": "inactive: 4.83%"}, {"smiles": "Cc1nnc(Nc2ccc(O)cc2)[nH]c1=O", "rescue activity (ATP increase)": "inactive: 11%"}, {"smiles": "COCC(=O)N1C[C@@H]2[C@H](c3ccccc31)[C@H](CO)N2Cc1ccc(OC)cc1", "rescue activity (ATP increase)": "inactive: -3.02%"}, {"smiles": "CN1C[C@@H]2[C@H](c3ccccc31)[C@H](CO)N2Cc1ccccc1", "rescue activity (ATP increase)": "inactive: -1.19%"}, {"smiles": "C[C@H](CO)N1C[C@H](C)[C@H](CN(C)C(=O)Nc2ccc(F)cc2)OCCCC[C@H](C)Oc2ccc(NC(=O)Cc3ccccc3)cc2C1=O", "rescue activity (ATP increase)": "inactive: -7.95%"}, {"smiles": "COc1ccc(S(=O)(=O)Nc2ccc3c(c2)C(=O)N([C@H](C)CO)C[C@@H](C)[C@@H](CN(C)S(=O)(=O)c2ccc(F)cc2)OCCCC[C@H](C)O3)cc1", "rescue activity (ATP increase)": "inactive: 11.4%"}, {"smiles": "CC1(C)CC(NC(=O)CCC2CCCC2)CC(C)(C)N1", "rescue activity (ATP increase)": "inactive: 30.3%"}, {"smiles": "C[C@@H]1CN([C@H](C)CO)C(=O)Cc2cc(NC(=O)c3ccncc3)ccc2O[C@@H]1CN(C)Cc1ccc(Cl)c(Cl)c1", "rescue activity (ATP increase)": "inactive: 22.4% [at 21 µM]"}, {"smiles": "CCC(CCC(=O)Nc1ccn(-c2ccccc2)n1)C(=O)O", "note": "(configuration not stated)", "rescue activity (ATP increase)": "inactive: -4.18%"}, {"smiles": "O=C(Cc1coc(-c2ccc(F)cc2)n1)Nc1ccccc1", "rescue activity (ATP increase)": "inactive: -14.8%"}, {"smiles": "N#CC(=C1Nc2ccccc2N1)S(=O)(=O)c1ccccc1", "rescue activity (ATP increase)": "inactive: 7.84%"}, {"smiles": "CCOC(=O)CN(C(=O)CNC(=O)c1ccco1)C(C(=O)NC1CCCCC1)c1cccs1", "note": "(configuration not stated)", "rescue activity (ATP increase)": "inactive: 8.81%"}, {"smiles": "O=C(C[C@@H]1CC[C@H]2[C@@H](COC[C@@H](O)CN2Cc2cccc(Cl)c2)O1)NCC1CCCCC1", "rescue activity (ATP increase)": "inactive: 20.6%"}, {"smiles": "C[C@H](CO)N1C[C@H](C)[C@H](CN(C)S(=O)(=O)c2ccc(F)cc2)OCCCC[C@H](C)Oc2ccc(NS(C)(=O)=O)cc2C1=O", "rescue activity (ATP increase)": "inactive: -3.22%"}, {"smiles": "COc1ccc(S(=O)(=O)Nc2ccc3c(c2)C(=O)N([C@@H](C)CO)C[C@H](C)[C@H](CN(C)Cc2ccc(C(F)(F)F)cc2)O3)cc1", "rescue activity (ATP increase)": "inactive: 26.2%"}, {"smiles": "CCCNC(=O)c1c(N)n(-c2cccc(OC)c2)c2nc3ccccc3nc12", "rescue activity (ATP increase)": "inactive: -12.4%"}, {"smiles": "O=C(Nc1ccccc1)[C@@H]1[C@@H](CO)[C@@H]2Cn3c(ccc(C4=CCCCC4)c3=O)[C@@H]2N1Cc1cocn1", "rescue activity (ATP increase)": "inactive: -1.49%"}, {"smiles": "CCCNC(=O)N(C)C[C@@H]1Oc2cc(C3=CCCCC3)ccc2S(=O)(=O)N([C@@H](C)CO)C[C@@H]1C", "rescue activity (ATP increase)": "inactive: 6.48%"}, {"smiles": "CCOc1ccc(OCCOCCOc2c(Cl)cccc2Cl)cc1", "rescue activity (ATP increase)": "inactive: 12.4%"}, {"smiles": "Cc1ccc(N(C(=O)Cn2nnc3ccccc32)C(C(=O)NCc2ccco2)c2ccc(C)o2)cc1", "note": "(configuration not stated)", "rescue activity (ATP increase)": "inactive: 65.9%"}, {"smiles": "CCOc1cc(NC(=O)C2CC2)c(OCC)cc1NC(=O)c1ccccn1", "rescue activity (ATP increase)": "inactive: 10.8%"}, {"smiles": "COc1ccc(-c2ccc3c(c2)[C@@H]2[C@@H](CCN2C(=O)c2ccc4c(c2)OCO4)[C@@H](CO)N3)cc1", "rescue activity (ATP increase)": "inactive: 6.33%"}, {"smiles": "COc1ccc(NC(=O)N(C)C[C@@H]2Oc3ccc(NC(=O)Cn4cnnn4)cc3C(=O)N([C@H](C)CO)C[C@H]2C)cc1", "rescue activity (ATP increase)": "inactive: 0.051% [at 21 µM]"}, {"smiles": "Cc1cc(NC(=O)CCC(=O)N(CCC(C)C)C(C(=O)NC2CCCC2)c2cccnc2)no1", "note": "(configuration not stated)", "rescue activity (ATP increase)": "inactive: -14.7%"}, {"smiles": "CC(=O)C[C@@H](O)CC(=O)[C@@H]1OC(=O)CCCCCCCCc2ccccc21", "rescue activity (ATP increase)": "inactive: 35.6%"}, {"smiles": "C[C@@H]1CN([C@H](C)CO)C(=O)c2cc(C3=CCCCC3)cnc2O[C@H]1CN(C)C(=O)Nc1cccc(F)c1", "rescue activity (ATP increase)": "inactive: 27.1%"}, {"smiles": "COc1ccc(OC)c(CNC(=O)C2CCCN(c3nc4ccccc4o3)C2)c1", "note": "(configuration not stated)", "rescue activity (ATP increase)": "inactive: 16.2%"}, {"smiles": "Cc1noc(C)c1NC(=O)Nc1ccc2c(c1)CC(=O)N([C@H](C)CO)C[C@H](C)[C@@H](CN(C)Cc1ccc(Oc3ccccc3)cc1)O2", "rescue activity (ATP increase)": "inactive: -27.8%"}, {"smiles": "Cc1cccn2c(=O)c3cc(C(=O)NCCC4=CCCCC4)n(C)c3nc12", "rescue activity (ATP increase)": "inactive: -167%"}, {"smiles": "COc1ccc2oc(=O)c(-c3nnc(NCc4ccco4)s3)cc2c1", "rescue activity (ATP increase)": "inactive: -9.04%"}, {"smiles": "C[C@H](CO)N1C[C@H](C)[C@@H](CN(C)Cc2ccc(-c3ccccc3)cc2)Oc2ccc(NC(=O)CCCCCC(=O)Nc3ccccc3N)cc2CC1=O", "rescue activity (ATP increase)": "inactive: 32%"}, {"smiles": "Oc1ccc(-c2onc3ccc(Cl)cc23)cc1", "rescue activity (ATP increase)": "inactive: -4.02%"}, {"smiles": "O=C(C/C=N/OCc1c(Cl)cccc1Cl)c1cnc(-c2ccccc2)s1", "rescue activity (ATP increase)": "inactive: -1.61%"}, {"smiles": "CCOC(=O)C(C)n1nc(/C=C/c2ccccc2)ccc1=O", "note": "(configuration not stated)", "rescue activity (ATP increase)": "inactive: -17.3%"}, {"smiles": "CCOC(=O)N1CCC(NC(=O)c2cc(C)c3c(C)nn(-c4ccccc4)c3n2)CC1", "rescue activity (ATP increase)": "inactive: -1.19%"}, {"smiles": "COc1ccc(Cl)cc1C(=O)n1nc(C)cc1C", "rescue activity (ATP increase)": "inactive: 0.34%"}, {"smiles": "COc1ccc(OC)c(S(=O)(=O)NCc2cccnc2)c1", "rescue activity (ATP increase)": "inactive: -14.8%"}, {"smiles": "C[C@@H]1CCCCO[C@H](CN(C)Cc2ccc(C(F)(F)F)cc2)[C@H](C)CN([C@H](C)CO)C(=O)c2cc(NC(=O)Cc3ccccc3)ccc2O1", "rescue activity (ATP increase)": "inactive: 7.72%"}, {"smiles": "CCOc1ccc(N(CC(=O)NCc2ccco2)S(=O)(=O)c2ccc(OC)c(OC)c2)cc1", "rescue activity (ATP increase)": "inactive: 11.6%"}, {"smiles": "CC(=O)Nc1ccc(C(=O)CSc2nc3ccc(C)cc3[nH]2)cc1", "rescue activity (ATP increase)": "inactive: -22.6%"}, {"smiles": "Cc1cccn2cc(CNc3ccccc3)nc12", "rescue activity (ATP increase)": "inactive: 9.4%"}, {"smiles": "c1cc(-c2noc(CC3CCCCC3)n2)ccn1", "rescue activity (ATP increase)": "inactive: 15.6%"}, {"smiles": "C[C@H]1CN([C@@H](C)CO)C(=O)c2cccc(NC(=O)Nc3cccc4ccccc34)c2O[C@H]1CN(C)Cc1ccc(Cl)c(Cl)c1", "rescue activity (ATP increase)": "inactive: 28.7%"}, {"smiles": "C[C@@H]1CN([C@@H](C)CO)C(=O)c2cccc(NC(=O)c3nc4ccccc4s3)c2O[C@H]1CN(C)Cc1ccc(C(=O)Nc2ccccc2N)cc1", "rescue activity (ATP increase)": "inactive: 14.9%"}, {"smiles": "CS(=O)(=O)N(CC(=O)NCc1ccco1)c1ccc(OCc2ccccc2)cc1", "rescue activity (ATP increase)": "inactive: 23.1%"}, {"smiles": "COc1ccc(C(=O)NC(C(=O)NCc2ccccn2)C(C)C)cc1", "note": "(configuration not stated)", "rescue activity (ATP increase)": "inactive: 36.3%"}, {"smiles": "O=C(c1ccc(F)cc1)N1CCC(N2CCCCCC2)CC1", "rescue activity (ATP increase)": "inactive: -15.7%"}, {"smiles": "O=C(COc1cc(=O)n2c(n1)SCCC2)c1ccccc1", "rescue activity (ATP increase)": "inactive: 36.7%"}, {"smiles": "C[C@H](CO)N1C[C@H](C)[C@@H](CN(C)Cc2ccc3c(c2)OCO3)Oc2ccc(NS(=O)(=O)c3ccc(F)cc3)cc2CC1=O", "rescue activity (ATP increase)": "inactive: 27.9%"}]}]}
